Values quoted from earlier work as cited in patent US7205343B2, “Stabilized bioactive preparations and method of use” (priority 1997, dated 2007).
For at least one compound, name, drawing or mass did not settle the structure.

Conditions: cited from earlier work

In the case of `FC(C(F)(F)F)C(F)(F)F` [HFA-227], the “Refractive Index” value is given as 1.223.
